System: ctDNA
Experiment: Thermal melting (ΔTm) of ctDNA
Assay type: binding, calf
Details: from non-linear dependence of ΔTm on r; polynucleotide not given
Experimental: T m experiments were conducted with a Perkin Elmer Lambda 25 spectrophotometer in 1 cm quartz cuvettes. The absorbance of the DNA/RNA-compound complex was monitored at 260 nm as a function of temperature. The absorbance of the ligands was subtracted from every curve, and the absorbance scale was normalised. The ΔT m values were calculated by subtracting T m of the free nucleic acid from T m of the complex. Every reported ΔT m value was the average of at least two measurements. The error of ΔT m is ±0.5 °C. All data were graphed and analysed using Origin software version 9.0.
Denaturation experiments were carried out at different amounts of the compounds (r = 0.1, 0.3, 0.5, and 0.7 eq; r = [compound]/[polynucleotide]) with ctDNA and polyA-polyU.

Structure (SMILES): Cl.Cl.c1ccc(SCn2cc(COc3ccc(-c4nc5cc(C6=NCCN6)ccc5[nH]4)cc3)nn2)cc1 [Compound 9e, 5–(4,5-Dihydro-1H-imidazol-2-yl)-2–(4-((1-(phenylthiomethyl)-1H-1,2,3-triazol-4-yl)methoxy)phenyl)-1H-benz[d]imidazole dihydrochloride]
- saturation of binding sites at ratio r: 0.3–0.5

Structure (SMILES): Cl.Cl.Clc1ccccc1-n1cc(COc2ccc(-c3nc4cc(C5=NCCN5)ccc4[nH]3)cc2)nn1 [Compound 9c, 5–(4,5-Dihydro-1H-imidazol-2-yl)-2–(4-((1–(2-chlorophenyl)-1H-1,2,3-triazol-4-yl)methoxy)phenyl)-1H-benz[d]imidazole dihydrochloride]
- saturation of binding sites at ratio r: 0.3–0.5

From paper PMC6127852 (Journal of Enzyme Inhibition and Medicinal Chemistry, 2018)
